# Laboratory results as given in PMC12005498.
# These are yes or no findings as the source states them, for the method shown. In cells and extracts the contact can be indirect. These calls come from enrichment with a bait or labelling near it, and not all partners need be listed.
# B1: NUFIP2, human (protein, UniProt Q7Z417 1-695)
# chain: MEEKPGQPQPQHHHSHHHPHHHPQQQQQQPHHHHHYYFYNHSHNHHHHHHHQQPHQYLQHGAEGSPKAQPKPLKHEQKHTLQQHQETPKKKTGYGELNGNAGEREISLKNLSSDEATNPISRVLNGNQQVVDTSLKQTVKANTFGKAGIKTKNFIQKNSMDKKNGKSYENKSGENQSVDKSDTIPIPNGVVTNNSGYITNGYMGKGADNDGSGSESGYTTPKKRKARRNSAKGCENLNIVQDKIMQQETSVPTLKQGLETFKPDYSEQKGNRVDGSKPIWKYETGPGGTSRGKPAVGDMLRKSSDSKPGVSSKKFDDRPKGKHASAVASKEDSWTLFKPPPVFPVDNSSAKIVPKISYASKVKENLNKTIQNSSVSPTSSSSSSSSTGETQTQSSSRLSQVPMSALKSVTSANFSNGPVLAGTDGNVYPPGGQPLLTTAANTLTPISSGTDSVLQDMSLTSAAVEQIKTSLFIYPSNMQTMLLSTAQVDLPSQTDQQNLGDIFQNQWGLSFINEPSAGPETVTGKSSEHKVMEVTFQGEYPATLVSQGAEIIPSGTEHPVFPKAYELEKRTSPQVLGSILKSGTTSESGALSLEPSHIGDLQKADTSSQGALVFLSKDYEIESQNPLASPTNTLLGSAKEQRYQRGLERNDSWGSFDLRAAIVYHTKEMESIWNLQKQDPKRIITYNEAMDSPDQ
# B2: RBM22, human (protein, UniProt Q9NW64 1-420)
# chain: MATSLGSNTYNRQNWEDADFPILCQTCLGENPYIRMTKEKYGKECKICARPFTVFRWCPGVRMRFKKTEVCQTCSKLKNVCQTCLLDLEYGLPIQVRDAGLSFKDDMPKSDVNKEYYTQNMEREISNSDGTRPVGMLGKATSTSDMLLKLARTTPYYKRNRPHICSFWVKGECKRGEECPYRHEKPTDPDDPLADQNIKDRYYGINDPVADKLLKRASTMPRLDPPEDKTITTLYVGGLGDTITETDLRNHFYQFGEIRTITVVQRQQCAFIQFATRQAAEVAAEKSFNKLIVNGRRLNVKWGRSQAARGKEKEKDGTTDSGIKLEPVPGLPGALPPPPAAEEEASANYFNLPPSGPPAVVNIALPPPPGIAPPPPPGFGPHMFHPMGPPPPFMRAPGPIHYPSQDPQRMGAHAGKHSSP
# Biological target: Semliki Forest virus (SFV) nsP3 fused with the biotin ligase miniTurbo (nsP3-mTB) (Semliki Forest virus)
# Experiment: proximity labelling
row,Binder,binding
1,B1,binds
2,B2,binds
